{"source": "paper PMC10163288", "binders": {"B1": {"name": "il2ra_site1_1z92_normal_mot_203a44625a3a2ba431098544127a80a6_0001_af2_000000214_0001_15_33_H_._HHH_b1_04183_0001_0000200013_0000001_0_af2pred_0001_af2pred (protein)", "chain": "SSSSSSEEKFARQAVRVLVELAGLSEEQKEELEELAEELVRRGLDPLEIAQLLAELAIRLSSSSS"}, "B2": {"name": "il2ra_site1_1z92_sap_12_mot_HHH_b1_02997_af2_000000005_0001_39_52_H_._HHH_b2_00881_af2_0001_0000100007_0000001_0_0001_af2pred_0001_af2pred_swapped (protein)", "chain": "SSSSDLEELAREIVEEIVKELGLSEEERRALEYAAEVAVRAGFSEKSIRIALQRAAERSLSSSSS"}, "B3": {"name": "il2ra_site1_2b5i_normal_mot_HHH_b2_01822_000000237_0001_40_54_H_._HEEHE_1920_0001_0000300027_0000001_0 (protein)", "chain": "SERAKLIWILMEVAQELDVPSVNVRVRNGKVHITILGTDESAEELSRVAEEVAEELGVDVEVEVH"}, "B4": {"name": "il2ra_site2_3nfp_normal_mot_7cf5847eaa050a71bc877a27954f5424_0001_1_af2_000000114_0001_17_30_H_._c458a205a670bde904f9ae2de9a5ce79_0001_1_0001_0000100001_0000001 … (protein)", "chain": "SFAWRLERAVEEGNLEEVLKKYVEAAEERTGNPEDAESLALAVIEFVLPDPRLQEEAKKIVEEVG"}, "B5": {"name": "il2ra_site2_2erj_sap_17_mot_HHH_b1_06320_000000123_0001_1_19_H_._HHH_b1_03307_af2_0001_0000300011_0000001_0_0001 (protein)", "chain": "SSSSSSDKLHKMFELLNQLMSAKSEEEIERILEEIEKLAEETNSENLEELLRDLERLLSSSSSSS"}, "B6": {"name": "il2ra_site1_1z92_normal_mot_54e474eed2d0515e81978198f0f96ec2_0001_000000202_0001_15_30_H_._HHH_b1_02168_af2_0001_0000200012_0000001_0_af2pred_0001_af2pred_1_swa … (protein)", "chain": "SSSSSEEEEEEVKEVVERLVEELGLDEEEKKAFEKDAEQALKRGIDPRAVERVLELIAKLASSSS"}, "B7": {"name": "il2ra_site1_1z92_sap_19_mot_HHH_b2_06842_af2_000000285_0001_42_55_H_._acc43fb67f959da0cf4372ddf554ea88_0001_0001_0000500016_0000001_0_0001_af2pred_0001_af2pred_ … (protein)", "chain": "SSSSDRQERIIEILVRNIERALKAGNPRAARRLLEELERLAKELNDEEAEELVKELKELINSSSS"}, "B8": {"name": "il2ra_site2_2erj_normal_mot_HHH_b2_06411_000000092_0001_40_56_H_._HHH_b2_02829_0001_0000100019_0000001_0 (protein)", "chain": "SSSSDELERLYELAVLLVRLVFNNDEEEFEKVVKEAEELAEKLQSESAKEAIEFLERELGSSSSS"}, "B9": {"name": "il2ra_site1_1z92_normal_mot_c9a8daa1dfea21d1414aecde54be4f54_0001_1_af2_000000024_0001_32_46_H_._3abea1aeba1101aad97199a57a9882c4_0001_af2_0001_0000600021_00000 … (protein)", "chain": "DLEKDFEHAKKAGFDPRNAAKALIAALERINKVPPEEAIEILLRLAEELGDEELFEVVEKLEKDP"}, "B10": {"name": "il2ra_site2_2erj_sap_24_mot_HHH_b2_07386_000000253_0001_42_56_H_._HHH_b1_07606_0001_0000400017_0000001_0_0001 (protein)", "chain": "SSSSSDELRKVYEILVEALRLAAEGNPEEARELLEEAIEEAEERGDEAAARILREAVEQFSSSSS"}, "B11": {"name": "il2ra_site1_3nfp_sap_21_mot_HHH_b1_05128_000000175_0001_22_38_H_._HHH_b2_00648_0001_0001200017_0000001_0_0001_af2pred_0001_af2pred (protein)", "chain": "SSSSNWLEKALKRFVEDAVRSAGLSEEEQKELEELAEELARRGVDSREAARILAEVAFRLLSSSS"}, "B12": {"name": "il2ra_site1_2b5i_sap_7_mot_HHH_b1_02271_000000068_0001_1_16_H_._HHH_b1_06384_af2_0001_0000500030_0000001_0_0001 (protein)", "chain": "SSSDLDERIQKLFREASELHRKGDHEEAEKVVEEAIELAREAGDEHIAKQLEEMLEYIQRVSSSS"}, "B13": {"name": "il2ra_site1_3nfp_sap_16_mot_5dea99290cf7e133ebc5b763b21a7a39_0001_000000160_0001_34_49_H_._HHH_b1_06214_0001_0000500017_0000001_0_0001 (protein)", "chain": "NFVERLIEEIEKRDEELSELLREVYELAEKKQDPRLLELLIKALALIQLGNPEEAKKLLEEAAKR"}, "B14": {"name": "il2ra_site2_2erj_normal_mot_HHH_b1_05749_af2_000000010_0001_23_39_H_._HHH_b2_02672_0001_0000100005_0000001_0 (protein)", "chain": "SSSSDEELEELYRLAVELLRLVSEGDKEKIEELLEEIEQLAEELQSDTAREVLELVKELLSSSSS"}, "B15": {"name": "il2ra_site1_1z92_normal_mot_73a3237f21306322153cb43486d2ff88_0001_1_af2_000000006_0001_34_49_H_._66959ead3e6c57cb3ef8243f3eb758e0_0001_1_0001_0000300041_0000001 … (protein)", "chain": "NDVEEELREAVEKNDEEELRRFIELLLKDAGDPELVRQLLKILVKRLGLPPEVLERLEELLEELT"}, "B16": {"name": "il2ra_site1_3nfp_sap_11_mot_HHH_b2_06502_000000163_0001_42_55_H_._HHH_b1_00250_0001_0000300024_0000001_0_0001_af2pred_0001_af2pred_1_swapped (protein)", "chain": "SEELVERFARIAVETNNPRTLRKLLEELEKFLGNPEEAEKLLREALEKAGLSPEEVEELLQEVKK"}, "B17": {"name": "il2ra_site1_1z92_normal_mot_01209686ea234b34325f918445e6eade_0001_af2_000000154_0001_18_33_H_._f9c37336de6f1513c893807100b70f62_0001_af2_0001_0000400024_0000001 … (protein)", "chain": "SVEEELEELLRKKLPPEEVRLIIRDLERLKEEYGDPEHALKALLLLLRKAGNPESAEVVEEVIRH"}, "B18": {"name": "il2ra_site2_3nfp_sap_24_mot_HHH_b2_06150_000000217_0001_39_53_H_._HHH_b1_06048_0001_0000600027_0000001_0_0001 (protein)", "chain": "SSSSDKAEEYLRAALELLKLAVEEGDEFAVKSLLEAIELMAEDRRDEEAEEIVEEVKELLSSSSS"}, "B19": {"name": "il2ra_site1_3nfp_normal_mot_a5af7fda9936c3448022740dda542bc7_0001_af2_000000171_0001_1_14_H_._2ddac98514d63a720a07c52076301d76_0001_0001_0000200028_0000001_0 (protein)", "chain": "SLEWAAERALELGDPLDLRHVIRALELAVERLGDPRAREALEIARKLLEEGNPEEAARVILELLR"}}, "note": "The list shows a part of the results.", "data": [{"molecular_target": "il2ra, P01589", "assay": "yeast display titration", "values": [{"binder": "B1", "apparent Kd": "inactive: no binding seen"}, {"binder": "B2", "apparent Kd": "inactive: no binding seen"}, {"binder": "B3", "apparent Kd": "inactive: no binding seen"}, {"binder": "B4", "apparent Kd": "inactive: no binding seen"}, {"binder": "B5", "apparent Kd": "inactive: no binding seen"}, {"binder": "B6", "apparent Kd": "inactive: no binding seen"}, {"binder": "B7", "apparent Kd": "inactive: no binding seen"}, {"binder": "B8", "apparent Kd": "inactive: no binding seen"}, {"binder": "B9", "apparent Kd": "inactive: no binding seen"}, {"binder": "B10", "apparent Kd": "inactive: no binding seen"}, {"binder": "B11", "apparent Kd": "inactive: no binding seen"}, {"binder": "B12", "apparent Kd": "inactive: no binding seen"}, {"binder": "B13", "apparent Kd": "inactive: no binding seen"}, {"binder": "B14", "apparent Kd": "inactive: no binding seen"}, {"binder": "B15", "apparent Kd": "inactive: no binding seen"}, {"binder": "B16", "apparent Kd": "inactive: > 1.21 µM"}, {"binder": "B17", "apparent Kd": "inactive: no binding seen"}, {"binder": "B18", "apparent Kd": "inactive: no binding seen"}, {"binder": "B19", "apparent Kd": "inactive: no binding seen"}]}]}
